Patent publication US20240327509A1, “HUMAN CXCLI6 ANTIBODIES AND THE USE THEREOF” (CELLUS,INC., priority 2021, published 2024)
Changes are numbered by the printed parent chain. These are yes or no findings as the source states them, for the method shown. Some entries that bind do so weakly or less than the wild type.

Assays:
[1] = target: T1, Recombinant human CXCL16 (rhCXCL16) protein (human) (UniProt Q9H2A7); assay: ELISA, recombinant human CXCL16 immobilized on the plate, HRP-labeled anti-human IgG detection, OD 450 nm
T1 sequence: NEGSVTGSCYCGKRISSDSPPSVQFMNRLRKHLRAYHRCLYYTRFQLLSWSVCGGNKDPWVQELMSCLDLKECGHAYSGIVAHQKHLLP

[2] = target: T1, Recombinant human CXCL16 (rhCXCL16) protein (human); assay: note to Table 6 (BLI, ForteBio)
[3] = target: T1, Recombinant human CXCL16 (rhCXCL16) protein (human); assay: bio-light interferometry assay; refers to Table 6 and Example 1
[4] = target: T1, Recombinant human CXCL16 (rhCXCL16) protein (human); assay: ELISA, recombinant human CXCL16 immobilized on plate, antibody 0.001~10 nM
[5] = target: T1, Recombinant human CXCL16 (rhCXCL16) protein (human); assay: bio-light interferometry assay
[6] = target: T1, Recombinant human CXCL16 (rhCXCL16) protein (human); assay: bio-light interferometry (ForteBio); refers to Table 6 and Example 1
[7] = target: T1, Recombinant human CXCL16 (rhCXCL16) protein (human); assay: bio-light interferometry (ForteBio)

Measured: binding

B1: Chimeric antibody HC0LC0 (antibody, V domains shown)
VH: AVQLVESGGGLVQPKESLKISCAASGFTFSNAVMNWVRQAPGKGLEWVARIRTKPNNYATFYADSVKGRFTFSRDDSKSMVYLQMDNLKTEDTAMYYCTAWTTEGIYWGQGTLVTVSS
VL: DIVMTQSPSSLAVSAGETVTINCKSSQSLLYSGNQKNYLAWYQQKPGQSPKLLIYWASTRQSGVPDRFIGSGSGTDFTLTISSVQAEDLAIYYCQQYYDTPWTFGGGTKLELKR
notes: also called CLS-A1HC0LC0; variant antibody
binds: [1] | [2]

B2: HC5LC1 (antibody, human IgG1, kappa, V domains shown)
VH: B1 VH with A1E, K15G, E16G, I20L, P41S, S79N, M80T, V81A, D86N, N87S
VL: B1 VL with S9D, I69S, L89V, I91V, L110V, L112I
notes: Humanized; human IgG1 / kappa constant domains; also called HCSLC1; humanized CXCL16 antibody HC5LC1
binds: [3] | [1] | [4] | [5] | [6] | [7]

B3: HC5LC5 (antibody, human IgG1, kappa, V domains shown)
VH: B1 VH with A1E, K15G, E16G, I20L, P41S, S79N, M80T, V81A, D86N, N87S
VL: B1 VL with T18R, V19A, V84L, L89V
notes: Humanized; human IgG1 / kappa constant domains; also called HCSLCS; humanized CXCL16 antibody HC5LC5
binds: [3] | [1] | [4] | [5] | [6] | [7]

B4: HC5LC2 (antibody, human IgG1, kappa, V domains shown)
VH: B1 VH with A1E, K15G, E16G, I20L, P41S, S79N, M80T, V81A, D86N, N87S
VL: B1 VL with A15L, V19A, S49P, I69T, S73A, L110V, L112I
notes: Humanized; human IgG1 / kappa constant domains; also called HCSLC2; humanized CXCL16 antibody HC5LC2
binds: [3] | [1] | [4] | [5] | [6] | [7]

B5: HC5LC3 (antibody, human IgG1, kappa, V domains shown)
VH: B1 VH with A1E, K15G, E16G, I20L, P41S, S79N, M80T, V81A, D86N, N87S
VL: DIQMTQSPSSLSASVGDRVTITCKSSQSLLYSGNQKNYLAWYQQKPGQSPKLLIYWASTRQSGVPDRFSGSGSGTDFTLTISSLQAEDFATYYCQQYYDTPWTFGGGTKVEIKR
notes: Humanized; human IgG1 / kappa constant domains; also called HCSLC3; humanized CXCL16 antibody HC5LC3
binds: [3] | [4] | [5] | [6] | [7]

B6: HC4LC1 (antibody, human IgG1, kappa, V domains shown)
VH: EVQLVESGGGLVKPGGSLRLSCAASGFTFSNAVMNWVRQAPGKGLEWVARIRTKPNNYATFYADSVKGRFTFSRDDSKNTLYLQMNSLKTEDTAVYYCTAWTTEGIYWGQGTTVTVSS
VL: B1 VL with S9D, I69S, L89V, I91V, L110V, L112I
notes: Humanized; human IgG1 / kappa constant domains; also called humanized CXCL16 antibody HC4LC1
binds: [3] | [1] | [4] | [5] | [6] | [7]
